Where two headings read alike, the source gives them in different places.

The experiment deals with NCI-60 cancer cell lines. The experiment is described as follows: NCI-60 cancer cell line drug screen (GI50, MGM). Format: cell-based. The conditions noted are these: Homo sapiens. On the procedure: Cancer cells were incubated with the test compounds at five concentrations ranging from 100 μM to 10 nM for 48 h. […] The approximate average of GI50 values across the entire panel of NCI-60 cancer cell lines for each compound was recorded as the MGM value.

Consider `COc1cnc2c(c1)C(=O)c1c-2n(CCCN2CCCC2)c(=O)c2cc(Cl)ccc12` [Compound 2], for which the concentration for 50% growth inhibition (GI50) by setting is: (SF-268, read-out: Antiproliferative Activities [GI50 (μM)]) 0.17 µM; (SNB-19, read-out: Antiproliferative Activities [GI50 (μM)]) 1.03 µM; (SNB-75, read-out: Antiproliferative Activities [GI50 (μM)]) 0.35 µM.

Values taken from patent US20210382058A1, “PATIENT SELECTION FOR TREATMENT OF MYC POSITIVE CANCERS WITH INDENOISOQUINOLINES” (Purdue Research Foundation, priority 2020, published 2021).
